Test results as given in patent US11168052B2, “Carbamate derivative compounds, processes for preparing them and their uses” (BIO-PHARM SOLUTIONS CO., LTD., priority 2016, dated 2021).

Legend:
[1] = test system: MES (electroshock) seizure in mice; test: Anti-epilepsy activity, MES test in mouse; format: in vivo, ICR mice
Protocol: (§1) In the MES test (Ref., G. Villetti et al. Neuropharmacology 40(2001) 866-878), an electrical stimulus (mice: 50 mA, 60 Hz, 0.2 sec, and rats: 150 mA, 60 Hz, 0.2 sec in the test animal) supplied by an 11A Shocker (IITC Life Science Company) was delivered through corneal electrodes. All mice or rats assigned to any electroshock at peak time were treated with each test compound sample which was dissolved in 20% tween 80 prepared by saline solvent applied orally before the test. […] Three doses of the test sample were administered orally to 9-18 animals (3-6 mice per dose) for evaluating the respective doses at which 50% of the animals were protected from seizure (ED50). The ED50 value (median effective dose) was calculated by Litchfield and Wicoxon log-probit method which is a dose-response relationship. Experimental animals, male ICR mice and male SD rats, were purchased from OrientBio, Samtako, or Nara Biotech, Korea, and housed in cages (4-5 mice or 3 rats per cage) for 4-5 days. The range of mice body weight was between 19 and 25 grams and range of rats body weight was between 100 and 130 grams.

[2] = test system: CFA-induced pain model in rats; test: Antiallodynic activity on Complete Freund's Adjuvant (CFA)-induced inflammatory pain model; format: in vivo, Sprague-Dawley rats; details: intraperitoneally
Protocol: Male, Sprague-Dawley rats (210-250 g, Nara Bio, Korea) were habituated for 1 week before surgery and allowed free access to food and water throughout the experimentation. Room temperature and humidity were maintained at 24±2 and 50±10%, respectively.
CFA-induced inflammatory pain was induced by the procedure of Nagakura et al. (2003) and Gregory P. et al. (2010) with minor modifications. CFA (sigma, USA) was injected in the right plantar with a 100 ul volume under gaseous anesthesia with isoflurane. Sham controls were injected with 100 ul of saline, and preparation of the vehicle controls were identical to the group treated with compound, except for administration of vehicles without indentical to the vihecle control group.
Tactile sensitivity (Mechanical allodynia) was evaluated using von Frey monofilaments before and after treatment, and animals were include in the study only if the withdrawal threshold value was less than 4 g. One week after CFA injection, CFA-infused animals, sham-operated animal, and vehicle-operated animals were tested for tactile sensitivity with von Frey monofilaments, with 3 trials for each animal. All Animals were placed in a stainless steel mashe chamber and habituated for 30 min in the test cage. The tactile sensitivity for ipsilateral hind paw was measured using the up-and-down method (Dixon, 1980) with seven von Frey monofilaments (0.4, 1, 2, 4, 6, 8, and 15 g) to 3 trials. The tactile sensitivity test was followed by Dixon's method (Dixon, 1980). The 50% paw withdrawal threshold for each paw was calculated using the following formula: [Xth]log=[vFr]log+ky where [vFr] is the force of the last von Frey used, k=0.2249 which is the average interval (in log units) between the von Frey monofilaments, and y is a value that depends upon the pattern of withdrawal responses (Dixon, 1980).
Antiallodynic effect of compounds was evaluated at the dose of 50 mg/kg (n=4-6), intraperitoneally administrated in a volume of 5 ul/g bw in a vehicle of 30% (v/v) PEG or 20% (v/v) Tween 80. The test was performed peak time of efficacy (0.5 hr) after compound administration.
The relative values compared to the sham (% control) were calculated and shown in Table 5, which show an antiallodynic effect of Compound 1 on CFA-induced pain model in rats.

[3] = test system: Lithium-pilocarpine induced seizure in rats; test: Lithium-pilocarpine induced epilepsy test (LI-PILO), prevention test; format: in vivo, Sprague-Dawley rats; details: i.p.
Protocol: Male Sprague-Dawley rats (purchased from Orient Bio Inc. Korea) of body weight 175 grams were used for these studies and 3 rats per cage were housed for 4-5 days. On the day prior to SE, rats received 127 mg/kg lithium chloride (Sigma, St. Louis, Mo., U.S.A.) intraperitoneally (i.p.). Approximately 18-20 h following this treatment, rats were given an i.p. injection of the concentration capable of inducing 97% intermittent convulsions pilocarpine(Sigma, 30-43 mg/kg). An i.p. injection of 2 mg/kg methyl-scopolamine (Sigma) was administered 30 min prior to pilocarpine to block the effects of the muscarinic agonist on peripheral cholinergic receptors. Test drugs were dissolved in 20% tween80 (Sigma).
The drugs were administered intraperitoneally (i.p.) in a volume of 2 μl/g body weight. Pharmacological effects of all of the test materials were evaluated to compare test groups (n=6) with a control group (n=6). Control group was administered vehicle only. The efficacy was measured 0.5, 1, 2, or 4 hours after the administration of the test material. The time point that the most animals were protected was defined as peak time and the ED50 was determined at peak time. The animals were then transferred to observation cages and observed continuously for 90 min Seizure was elicited in approximately 95% of the control group. Protection was defined as complete absence of seizure grade 3-5 (Racine scale; Racine, 1972) over the 90-min observation period. The effective dose of the compound necessary to protect 50% of the animals against seizures compared to controls (i.e., ED50) was determined by a curve fitting program (Excel 2007, Microsoft).

[4] = test system: MES (electroshock) seizure in rats; test: Anti-epilepsy activity, MES test in rats; format: in vivo, SD rats
Protocol: as §1

## NC(=O)O[C@H]1CCc2cccc(I)c2[C@H]1OC(N)=O [Example 37, (1R, 2S)-8-iodo-1,2,3,4-tetrahydronaphthalen-1,2-diyl dicarbamate]
[1]
  MES test (po) Peak time: 2 h

## NC(=O)O[C@H]1Cc2cccc(Cl)c2[C@H]1OC(N)=O [Example 78, (1R, 2S)-7-chloro-2,3-dihydro-1H-inden-1,2-diyl dicarbamate]
[2]
  CFA model Peak Time: 0.5 h
[1]
  MES test (po) Peak time: 4 h

## NC(=O)O[C@H]1c2c(F)cccc2C[C@H]1O [Example 69, (1S, 2R)-7-fluoro-2-hydroxy-2,3-dihydro-1H-inden-1-yl carbamate]
[1]
  MES test (po) Peak time: 2 h

## NC(=O)O[C@H]1CCc2cccc(Cl)c2[C@H]1OC(N)=O [Example 30, (1R, 2S)-8-chloro-1,2,3,4-tetrahydronaphthalen-1,2-diyl dicarbamate]
[2]
  CFA model Peak Time: 0.5 h
[1]
  MES test (po) Peak time: 4 h

## NC(=O)O[C@H]1CCc2cccc(I)c2[C@H]1O [Example 13, (1R, 2S)-1-hydroxy-8-iodo-1,2,3,4-tetrahydronaphthalen-2-yl carbamate]
[2]
  CFA model Peak Time: 0.5 h
[1]
  MES test (po) Peak time: 1 h

## COCO[C@@H]1c2c(Cl)cccc2C[C@@H]1OC(N)=O [Example 72, (1R, 2S)-7-chloro-1-(methoxymethoxy)-2,3-dihydro-1H-inden-2-yl carbamate]
[2]
  CFA model Peak Time: 0.5 h

## COCO[C@H]1c2c(Cl)cccc2CC[C@H]1OC(N)=O [Example 40, (1S, 2R)-8-chloro-1-(methoxymethoxy)-1,2,3,4-tetrahydronaphthalen-2-yl carbamate]
[3]
  Lithium pilocarpine model (pre) peak time: 0.5 h

## NC(=O)O[C@@H]1c2c(I)cccc2CC[C@@H]1O [Example 28, (1R, 2S)-2-hydroxy-8-iodo-1,2,3,4-tetrahydronaphthalen-1-yl carbamate]
[2]
  CFA model Peak Time: 0.5 h

## NC(=O)O[C@H]1c2c(I)cccc2CC[C@H]1O [Example 27, (1S, 2R)-2-hydroxy-8-iodo-1,2,3,4-tetrahydronaphthalen-1-yl carbamate]
[2]
  CFA model Peak Time: 0.5 h

## NC(=O)O[C@H]1c2cc(Cl)ccc2CC[C@H]1O [Example 21, (1S, 2R)-7-chloro-2-hydroxy-1,2,3,4-tetrahydronaphthalen-1-yl carbamate]
[2]
  CFA model Peak Time: 0.5 h
[1]
  MES test (po) Peak time: 3 h

## NC(=O)O[C@H]1CCc2ccc(Cl)cc2[C@H]1O [Example 7]
[2]
  CFA model Peak Time: 0.5 h
[1]
  MES test (po) Peak time: 2 h

## NC(=O)O[C@@H]1CCc2cccc(Cl)c2[C@H]1O [Example 4, (1R, 2R)-8-chloro-1-hydroxy-1,2,3,4-tetrahydronaphthalen-2-yl carbamate]
[1]
  MES test (po) Peak time: 4 h

## NC(=O)O[C@@H]1CCc2cccc(F)c2[C@@H]1O [Example 10, (1S, 2R)-8-fluoro-1-hydroxy-1,2,3,4-tetrahydronaphthalen-2-yl carbamate]
[2]
  CFA model Peak Time: 0.5 h
[1]
  MES test (po) Peak time: 1 h
[4]
  MES test (po) Peak time: 4 h

## COCO[C@H]1Cc2cccc(Cl)c2[C@H]1OC(N)=O [Example 76, (1R, 2S)-7-chloro-2-(methoxymethoxy)-2,3-dihydro-1H-inden-1-yl carbamate]
[2]
  CFA model Peak Time: 0.5 h

## NC(=O)O[C@@H]1CCc2cccc(I)c2[C@@H]1O [Example 12, (1S, 2R)-1-hydroxy-8-iodo-1,2,3,4-tetrahydronaphthalen-2-yl carbamate]
[2]
  CFA model Peak Time: 0.5 h
[1]
  MES test (po) Peak time: 4 h

## NC(=O)O[C@@H]1CCc2cccc(I)c2[C@@H]1OC(N)=O [Example 36, (1S, 2R)-8-iodo-1,2,3,4-tetrahydronaphthalen-1,2-diyl dicarbamate]
[2]
  CFA model Peak Time: 0.5 h
[1]
  MES test (po) Peak time: 2 h

## NC(=O)O[C@H]1c2ccc(Cl)cc2CC[C@H]1O [Example 23, (1S, 2R)-6-chloro-2-hydroxy-1,2,3,4-tetrahydronaphthalen-1-yl carbamate]
[1]
  MES test (po) Peak time: 2 h

## NC(=O)O[C@@H]1CCc2ccc(Cl)cc2[C@@H]1O [Example 6, (1S, 2R)-7-chloro-1-hydroxy-1,2,3,4-tetrahydronaphthalen-2-yl carbamate]
[2]
  CFA model Peak Time: 0.5 h
[1]
  MES test (po) Peak time: 4 h

## NC(=O)O[C@H]1c2cccc(Cl)c2C[C@H]1O [Example 62, (1S, 2R)-4-chloro-2-hydroxy-2,3-dihydro-1H-inden-1-yl carbamate]
[1]
  MES test (po) Peak time: 1 h
[4]
  MES test (po) Peak time: 1 h

## NC(=O)O[C@@H]1CCc2ccccc2[C@@H]1O [Example 14, (1S, 2R)-1-hydroxy-1,2,3,4-tetrahydronaphthalen-2-yl carbamate]
[1]
  MES test (po) Peak time: 1 h

## NC(=O)O[C@@H]1Cc2c(Cl)cccc2[C@@H]1O [Example 68, (1S, 2R)-4-chloro-1-hydroxy-2,3-dihydro-1H-inden-2-yl carbamate]
[1]
  MES test (po) Peak time: 1 h
[4]
  MES test (po) Peak time: 1 h

## NC(=O)O[C@H]1c2ccccc2CC[C@H]1O [Example 16, (1S, 2R)-2-hydroxy-1,2,3,4-tetrahydronaphthalen-1-yl carbamate]
[1]
  MES test (po) Peak time: 0.5 h

## 8-chloro-2-hydroxy-1,2,3,4-tetrahydronaphthalen-1-yl carbamate (mixture of SR & RS) [Example 20]
[2]
  CFA model Peak Time: 0.5 h
[1]
  MES test (po) Peak time: 0.5 h

## NC(=O)O[C@@H]1c2cc(Cl)ccc2CC[C@@H]1O [Example 22, (1R, 2S)-7-chloro-2-hydroxy-1,2,3,4-tetrahydronaphthalen-1-yl carbamate]
[2]
  CFA model Peak Time: 0.5 h
[1]
  MES test (po) Peak time: 2 h

## NC(=O)O[C@@H]1CCc2cc(Cl)ccc2[C@@H]1O [Example 8, (1S, 2R)-6-chloro-1-hydroxy-1,2,3,4-tetrahydronaphthalen-2-yl carbamate]
[1]
  MES test (po) Peak time: 1 h

## NC(=O)O[C@H]1CCc2cc(Cl)ccc2[C@H]1O [Example 9, (1R, 2S)-6-chloro-1-hydroxy-1,2,3,4-tetrahydronaphthalen-2-yl carbamate]
[2]
  CFA model Peak Time: 0.5 h

## NC(=O)O[C@H]1Cc2cccc(F)c2[C@H]1O [Example 56, (1R, 2S)-7-fluoro-1-hydroxy-2,3-dihydro-1H-inden-2-yl carbamate]
[2]
  CFA model Peak Time: 0.5 h
[1]
  MES test (po) Peak time: 0.5 h
